These are yes or no findings as the source states them, for the method shown. In cells and extracts the contact can be indirect. A yes stands for co-enrichment or nearness to the bait. Other partners may have been found.
Target: T1, Juxtaposed with another zinc finger protein 1 (JAZF1) (human (endogenous in immortalized HESCs)) (UniProt Q86VZ6)
T1 sequence: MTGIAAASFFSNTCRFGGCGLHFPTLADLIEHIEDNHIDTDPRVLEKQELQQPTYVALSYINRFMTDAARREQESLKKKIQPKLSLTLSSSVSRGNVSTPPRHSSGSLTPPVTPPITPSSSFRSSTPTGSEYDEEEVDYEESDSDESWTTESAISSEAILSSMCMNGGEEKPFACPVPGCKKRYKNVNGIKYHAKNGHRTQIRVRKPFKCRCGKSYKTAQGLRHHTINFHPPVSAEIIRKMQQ
Assay: affinity purification with mass spectrometry; IP with JAZF1-conjugated protein A + G magnetic beads from immortalized HESCs treated with MPA and cAMP for 6 days; bands that differ between JAZF1 and IgG control cut from SDS-PAGE; LC-MS

B1: Purβ (protein, UniProt Q96QR8 1-312)
chain: MADGDSGSERGGGGGPCGFQPASRGGGEQETQELASKRLDIQNKRFYLDVKQNAKGRFLKIAEVGAGGSKSRLTLSMAVAAEFRDSLGDFIEHYAQLGPSSPEQLAAGAEEGGGPRRALKSEFLVRENRKYYLDLKENQRGRFLRIRQTVNRGGGGFGAGPGPGGLQSGQTIALPAQGLIEFRDALAKLIDDYGGEDDELAGGPGGGAGGPGGGLYGELPEGTSITVDSKRFFFDVGCNKYGVFLRVSEVKPSYRNAITVPFKAWGKFGGAFCRYADEMKEIQERQRDKLYERRGGGSGGGEESEGEEVDED
B1 was tested, and the binding was “binds”.

Source: publication PMC10224957
